The assay deals with human activated protein C (human). As to the kind of experiment: ELISA, coated antigen. For orientation: In an ELISA, binding on a coated surface is turned into a signal by an enzyme label.

These are yes or no findings as the source states them, for the method shown. Binding can be weak; no strength is given.

B1: Hu1573-2 (antibody, V domains shown)
VH: EVQLVESGGGLVQPGGSLRLSCAASGFTFSNYYLNWVRQAPGKGLEWVGDIRLKSNNYEKHYAESVKGRFTISRDDSKNSLYLQMNSLKTEDTAVYYCIREGDYFDYWGQGTTVTVSS
VL: DIVLTQTPLSLSVTPGQPASISCRASESVDSFGATFMHWYLQKPGQPPQLLIYLASNLESGVPDRFSGSGSRTDFTLKISRVEAEDVGVYYCQQNNEDPYTFGQGTKLEIKR
On to B1, for which the binding result is “binds”.

B2: Hu1573-15 (antibody, V domains shown)
VH: EVQLVESGGGLVQPGGSLRLSCAASGFTFSNYYLNWVRQAPGKGLEWVADIRLKSNNYEKHYAESVKGRFTISRDDSKSSVYLQMNSLKTEDTAVYYCIREGDYFDYWGQGTTVTVSS
VL: DIVMTQTPLSLSVTPGQPASISCRASESVDSFGATFMHWYLQKPGQPPQLLIYLASNLESGVPDRFSGSGSGTDFTLKISRVEAEDVGVYYCQQNNEDPYTFGQGTKLEIKR
On to B2, for which the binding entry is “binds”.

B3: Hu1573-8 (antibody, V domains shown)
VH: EVQLVESGGGLVQPGGSLRLSCAASGFTFSNYYLNWVRQAPGKGLEWVADIRLKSNNYEKHYAESVKGRFTISRDDSKNSLYLQMNSLKTEDTAVYYCIREGDYFDYWGQGTTVTVSS
VL: DIVMTQTPLSLSVTPGQPASISCRASESVDSFGATFMHWYLQKPGQPPQLLIYLASNLESGVPDRFSGSGSRTDFTLKISRVEAEDVGVYYCQQNNEDPYTFGQGTKLEIKR
With B3, the binding entry was “binds”.

B4: Hu1573-4 (antibody, V domains shown)
VH: EVQLVESGGGLVQPGGSLRLSCAASGFTFSNYYLNWVRQAPGKGLEWVGDIRLKSNNYEKHYAESVKGRFTISRDDSKNSVYLQMNSLKTEDTAVYYCIREGDYFDYWGQGTTVTVSS
VL: DIVLTQTPLSLSVTPGQPASISCRASESVDSFGATFMHWYLQKPGQPPQLLIYLASNLESGVPDRFSGSGSGTDFTLKISRVEAEDVGVYYCQQNNEDPYTFGQGTKLEIKR
As to B4, the binding entry is “binds”.

B5: Hu1573-3 (antibody, V domains shown)
VH: EVQLVESGGGLVQPGGSLRLSCAASGFTFSNYYLNWVRQAPGKGLEWVGDIRLKSNNYEKHYAESVKGRFTISRDDSKNSVYLQMNSLKTEDTAVYYCIREGDYFDYWGQGTTVTVSS
VL: DIVMTQTPLSLSVTPGQPASISCRASESVDSFGATFMHWYLQKPGQPPQLLIYLASNLESGVPDRFSGSGSGTDFTLKISRVEAEDVGVYYCQQNNEDPYTFGQGTKLEIKR
As for B5, the binding result is “binds”.

B6: Hu1573-6 (antibody, V domains shown)
VH: EVQLVESGGGLVQPGGSLRLSCAASGFTFSNYYLNWVRQAPGKGLEWVADIRLKSNNYEKHYAESVKGRFTISRDDSKNSLYLQMNSLKTEDTAVYYCIREGDYFDYWGQGTTVTVSS
VL: DIVMTQTPLSLSVTPGQPASISCRASESVDSFGATFMHWYLQKPGQPPQLLIYLASNLESGVPDRFSGSGSGTDFTLKISRVEAEDVGVYYCQQNNEDPYTFGQGTKLEIKR
For B6, the binding entry is recorded as “binds”.

B7: Hu1573-11 (antibody, V domains shown)
VH: EVQLVESGGGLVQPGGSLRLSCAASGFTFSNYYLNWVRQAPGKGLEWVGDIRLKSNNYEKHYAESVKGRFTISRDDSKSSLYLQMNSLKTEDTAVYYCIREGDYFDYWGQGTTVTVSS
VL: DIVMTQTPLSLSVTPGQPASISCRASESVDSFGATFMHWYLQKPGQPPQLLIYLASNLESGVPDRFSGSGSRTDFTLKISRVEAEDVGVYYCQQNNEDPYTFGQGTKLEIKR
As for B7, the binding entry is on record as “binds”.

B8: Hu1573-9 (antibody, V domains shown)
VH: EVQLVESGGGLVQPGGSLRLSCAASGFTFSNYYLNWVRQAPGKGLEWVGDIRLKSNNYEKHYAESVKGRFTISRDDSKSSLYLQMNSLKTEDTAVYYCIREGDYFDYWGQGTTVTVSS
VL: DIVMTQTPLSLSVTPGQPASISCRASESVDSFGATFMHWYLQKPGQPPQLLIYLASNLESGVPDRFSGSGSGTDFTLKISRVEAEDVGVYYCQQNNEDPYTFGQGTKLEIKR
For B8, the binding entry was “binds”.

B9: Hu1573-13 (antibody, V domains shown)
VH: EVQLVESGGGLVQPGGSLRLSCAASGFTFSNYYLNWVRQAPGKGLEWVADIRLKSNNYEKHYAESVKGRFTISRDDSKNSVYLQMNSLKTEDTAVYYCIREGDYFDYWGQGTTVTVSS
VL: DIVLTQTPLSLSVTPGQPASISCRASESVDSFGATFMHWYLQKPGQPPQLLIYLASNLESGVPDRFSGSGSGTDFTLKISRVEAEDVGVYYCQQNNEDPYTFGQGTKLEIKR
Turning to B9, the binding result was “binds”.

B10: Hu1573-10 (antibody, V domains shown)
VH: EVQLVESGGGLVQPGGSLRLSCAASGFTFSNYYLNWVRQAPGKGLEWVGDIRLKSNNYEKHYAESVKGRFTISRDDSKSSLYLQMNSLKTEDTAVYYCIREGDYFDYWGQGTTVTVSS
VL: DIVLTQTPLSLSVTPGQPASISCRASESVDSFGATFMHWYLQKPGQPPQLLIYLASNLESGVPDRFSGSGSGTDFTLKISRVEAEDVGVYYCQQNNEDPYTFGQGTKLEIKR
As for B10, the binding result is “binds”.

B11: Hu1573-14 (antibody, V domains shown)
VH: EVQLVESGGGLVQPGGSLRLSCAASGFTFSNYYLNWVRQAPGKGLEWVADIRLKSNNYEKHYAESVKGRFTISRDDSKNSVYLQMNSLKTEDTAVYYCIREGDYFDYWGQGTTVTVSS
VL: DIVMTQTPLSLSVTPGQPASISCRASESVDSFGATFMHWYLQKPGQPPQLLIYLASNLESGVPDRFSGSGSRTDFTLKISRVEAEDVGVYYCQQNNEDPYTFGQGTKLEIKR
As to B11, the binding entry was “binds”.

B12: Hu1573-17 (antibody, V domains shown)
VH: EVQLVESGGGLVQPGGSLRLSCAASGFTFSNYYLNWVRQAPGKGLEWVADIRLKSNNYEKHYAESVKGRFTISRDDSKSSVYLQMNSLKTEDTAVYYCIREGDYFDYWGQGTTVTVSS
VL: DIVMTQTPLSLSVTPGQPASISCRASESVDSFGATFMHWYLQKPGQPPQLLIYLASNLESGVPDRFSGSGSRTDFTLKISRVEAEDVGVYYCQQNNEDPYTFGQGTKLEIKR
Turning to B12, the binding entry is “binds”.

B13: Hu1573-16 (antibody, V domains shown)
VH: EVQLVESGGGLVQPGGSLRLSCAASGFTFSNYYLNWVRQAPGKGLEWVADIRLKSNNYEKHYAESVKGRFTISRDDSKSSVYLQMNSLKTEDTAVYYCIREGDYFDYWGQGTTVTVSS
VL: DIVLTQTPLSLSVTPGQPASISCRASESVDSFGATFMHWYLQKPGQPPQLLIYLASNLESGVPDRFSGSGSGTDFTLKISRVEAEDVGVYYCQQNNEDPYTFGQGTKLEIKR
Turning to B13, the binding entry is “binds”.

B14: Hu1573-7 (antibody, V domains shown)
VH: EVQLVESGGGLVQPGGSLRLSCAASGFTFSNYYLNWVRQAPGKGLEWVADIRLKSNNYEKHYAESVKGRFTISRDDSKNSLYLQMNSLKTEDTAVYYCIREGDYFDYWGQGTTVTVSS
VL: DIVLTQTPLSLSVTPGQPASISCRASESVDSFGATFMHWYLQKPGQPPQLLIYLASNLESGVPDRFSGSGSGTDFTLKISRVEAEDVGVYYCQQNNEDPYTFGQGTKLEIKR
As to B14, the binding entry is given as “binds”.

B15: Hu1573-12 (antibody, V domains shown)
VH: EVQLVESGGGLVQPGGSLRLSCAASGFTFSNYYLNWVRQAPGKGLEWVADIRLKSNNYEKHYAESVKGRFTISRDDSKNSVYLQMNSLKTEDTAVYYCIREGDYFDYWGQGTTVTVSS
VL: DIVMTQTPLSLSVTPGQPASISCRASESVDSFGATFMHWYLQKPGQPPQLLIYLASNLESGVPDRFSGSGSGTDFTLKISRVEAEDVGVYYCQQNNEDPYTFGQGTKLEIKR
As for B15, the binding entry is given as “binds”.

B16: Hu1573-5 (antibody, V domains shown)
VH: EVQLVESGGGLVQPGGSLRLSCAASGFTFSNYYLNWVRQAPGKGLEWVGDIRLKSNNYEKHYAESVKGRFTISRDDSKNSVYLQMNSLKTEDTAVYYCIREGDYFDYWGQGTTVTVSS
VL: DIVMTQTPLSLSVTPGQPASISCRASESVDSFGATFMHWYLQKPGQPPQLLIYLASNLESGVPDRFSGSGSRTDFTLKISRVEAEDVGVYYCQQNNEDPYTFGQGTKLEIKR
As for B16, the binding entry is “binds”.

The values above are taken from patent USRE49099.
